In paper PMC11460698:
These are yes or no findings as the source states them, for the method shown. Binding seen in cells or lysates may run through a third protein. Some results given as binding are weak or reduced against the parent protein; the word gives no strength.

By UniProt entry, the sequences of proteins in these tests, tags left out. Where a name states a change or a piece, a line headed by the entry shows the natural chain unless it says otherwise.
UniProt P35222: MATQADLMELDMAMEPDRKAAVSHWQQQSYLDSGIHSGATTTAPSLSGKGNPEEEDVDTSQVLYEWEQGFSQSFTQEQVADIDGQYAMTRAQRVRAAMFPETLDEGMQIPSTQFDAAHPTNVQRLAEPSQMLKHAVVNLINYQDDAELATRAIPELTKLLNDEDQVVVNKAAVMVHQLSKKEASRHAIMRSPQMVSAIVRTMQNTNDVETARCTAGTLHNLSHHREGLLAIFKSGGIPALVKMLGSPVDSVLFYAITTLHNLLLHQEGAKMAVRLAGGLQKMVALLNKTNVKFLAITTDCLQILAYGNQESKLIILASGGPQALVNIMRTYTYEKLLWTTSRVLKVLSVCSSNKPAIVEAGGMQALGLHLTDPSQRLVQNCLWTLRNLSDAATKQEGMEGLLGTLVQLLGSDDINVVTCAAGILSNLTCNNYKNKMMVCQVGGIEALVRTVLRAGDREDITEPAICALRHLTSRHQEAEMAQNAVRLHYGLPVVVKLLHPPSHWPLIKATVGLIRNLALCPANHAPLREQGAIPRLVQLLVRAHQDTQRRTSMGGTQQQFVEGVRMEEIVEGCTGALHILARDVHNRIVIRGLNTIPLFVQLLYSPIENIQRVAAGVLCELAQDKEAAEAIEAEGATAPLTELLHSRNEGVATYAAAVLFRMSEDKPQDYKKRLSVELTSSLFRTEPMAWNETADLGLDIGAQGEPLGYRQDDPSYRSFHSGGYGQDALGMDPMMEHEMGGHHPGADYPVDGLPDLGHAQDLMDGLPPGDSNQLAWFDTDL
UniProt P51532: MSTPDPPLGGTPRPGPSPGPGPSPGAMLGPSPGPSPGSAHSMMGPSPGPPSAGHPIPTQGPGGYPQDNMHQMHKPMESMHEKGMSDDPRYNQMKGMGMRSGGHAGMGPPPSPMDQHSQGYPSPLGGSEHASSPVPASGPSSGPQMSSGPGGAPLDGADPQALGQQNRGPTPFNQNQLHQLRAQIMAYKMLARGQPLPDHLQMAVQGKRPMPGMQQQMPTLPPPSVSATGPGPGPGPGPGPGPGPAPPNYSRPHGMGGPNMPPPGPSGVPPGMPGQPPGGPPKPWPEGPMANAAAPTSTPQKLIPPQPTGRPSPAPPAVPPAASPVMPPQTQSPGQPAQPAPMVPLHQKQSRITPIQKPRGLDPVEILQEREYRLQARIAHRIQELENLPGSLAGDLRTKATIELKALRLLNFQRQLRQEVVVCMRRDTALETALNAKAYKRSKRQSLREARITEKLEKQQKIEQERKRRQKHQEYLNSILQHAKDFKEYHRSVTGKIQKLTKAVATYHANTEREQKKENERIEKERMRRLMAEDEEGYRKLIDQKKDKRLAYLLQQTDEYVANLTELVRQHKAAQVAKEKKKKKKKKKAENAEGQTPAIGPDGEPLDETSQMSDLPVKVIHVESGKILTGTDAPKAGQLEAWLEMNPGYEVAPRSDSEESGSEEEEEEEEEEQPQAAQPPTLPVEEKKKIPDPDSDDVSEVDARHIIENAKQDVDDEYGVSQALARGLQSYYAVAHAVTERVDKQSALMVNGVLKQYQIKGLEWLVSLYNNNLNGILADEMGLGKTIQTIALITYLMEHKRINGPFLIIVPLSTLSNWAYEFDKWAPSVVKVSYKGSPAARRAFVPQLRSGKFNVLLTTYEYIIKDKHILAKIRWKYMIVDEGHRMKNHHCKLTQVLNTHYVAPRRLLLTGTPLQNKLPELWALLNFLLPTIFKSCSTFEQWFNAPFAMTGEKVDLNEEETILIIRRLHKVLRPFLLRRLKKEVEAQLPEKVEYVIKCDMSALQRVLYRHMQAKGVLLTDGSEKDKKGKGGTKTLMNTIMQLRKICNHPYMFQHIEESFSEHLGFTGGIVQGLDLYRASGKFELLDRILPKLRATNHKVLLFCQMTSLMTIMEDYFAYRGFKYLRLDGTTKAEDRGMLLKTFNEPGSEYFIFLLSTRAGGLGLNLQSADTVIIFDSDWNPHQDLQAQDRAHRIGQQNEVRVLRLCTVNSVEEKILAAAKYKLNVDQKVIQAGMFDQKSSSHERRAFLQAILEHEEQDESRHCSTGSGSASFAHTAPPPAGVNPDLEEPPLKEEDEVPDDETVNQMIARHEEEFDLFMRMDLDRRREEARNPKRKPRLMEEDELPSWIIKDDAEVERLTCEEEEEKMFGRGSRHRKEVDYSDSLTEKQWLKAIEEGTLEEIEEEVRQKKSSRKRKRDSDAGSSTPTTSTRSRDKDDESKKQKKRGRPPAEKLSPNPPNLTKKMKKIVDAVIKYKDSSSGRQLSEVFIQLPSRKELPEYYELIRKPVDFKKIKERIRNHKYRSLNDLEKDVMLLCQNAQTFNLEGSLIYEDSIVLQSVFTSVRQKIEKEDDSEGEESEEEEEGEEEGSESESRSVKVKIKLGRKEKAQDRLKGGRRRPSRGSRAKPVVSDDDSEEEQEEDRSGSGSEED
UniProt P36402: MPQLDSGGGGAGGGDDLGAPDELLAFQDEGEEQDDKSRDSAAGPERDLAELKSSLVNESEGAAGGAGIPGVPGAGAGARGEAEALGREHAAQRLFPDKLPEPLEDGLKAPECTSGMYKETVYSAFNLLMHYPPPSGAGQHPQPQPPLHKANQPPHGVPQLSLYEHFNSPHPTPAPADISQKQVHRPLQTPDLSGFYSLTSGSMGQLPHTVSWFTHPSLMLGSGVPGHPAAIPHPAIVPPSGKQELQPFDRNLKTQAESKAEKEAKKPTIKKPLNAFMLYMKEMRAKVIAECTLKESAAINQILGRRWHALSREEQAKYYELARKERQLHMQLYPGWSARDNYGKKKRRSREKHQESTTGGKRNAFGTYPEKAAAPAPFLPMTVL
UniProt Q09472: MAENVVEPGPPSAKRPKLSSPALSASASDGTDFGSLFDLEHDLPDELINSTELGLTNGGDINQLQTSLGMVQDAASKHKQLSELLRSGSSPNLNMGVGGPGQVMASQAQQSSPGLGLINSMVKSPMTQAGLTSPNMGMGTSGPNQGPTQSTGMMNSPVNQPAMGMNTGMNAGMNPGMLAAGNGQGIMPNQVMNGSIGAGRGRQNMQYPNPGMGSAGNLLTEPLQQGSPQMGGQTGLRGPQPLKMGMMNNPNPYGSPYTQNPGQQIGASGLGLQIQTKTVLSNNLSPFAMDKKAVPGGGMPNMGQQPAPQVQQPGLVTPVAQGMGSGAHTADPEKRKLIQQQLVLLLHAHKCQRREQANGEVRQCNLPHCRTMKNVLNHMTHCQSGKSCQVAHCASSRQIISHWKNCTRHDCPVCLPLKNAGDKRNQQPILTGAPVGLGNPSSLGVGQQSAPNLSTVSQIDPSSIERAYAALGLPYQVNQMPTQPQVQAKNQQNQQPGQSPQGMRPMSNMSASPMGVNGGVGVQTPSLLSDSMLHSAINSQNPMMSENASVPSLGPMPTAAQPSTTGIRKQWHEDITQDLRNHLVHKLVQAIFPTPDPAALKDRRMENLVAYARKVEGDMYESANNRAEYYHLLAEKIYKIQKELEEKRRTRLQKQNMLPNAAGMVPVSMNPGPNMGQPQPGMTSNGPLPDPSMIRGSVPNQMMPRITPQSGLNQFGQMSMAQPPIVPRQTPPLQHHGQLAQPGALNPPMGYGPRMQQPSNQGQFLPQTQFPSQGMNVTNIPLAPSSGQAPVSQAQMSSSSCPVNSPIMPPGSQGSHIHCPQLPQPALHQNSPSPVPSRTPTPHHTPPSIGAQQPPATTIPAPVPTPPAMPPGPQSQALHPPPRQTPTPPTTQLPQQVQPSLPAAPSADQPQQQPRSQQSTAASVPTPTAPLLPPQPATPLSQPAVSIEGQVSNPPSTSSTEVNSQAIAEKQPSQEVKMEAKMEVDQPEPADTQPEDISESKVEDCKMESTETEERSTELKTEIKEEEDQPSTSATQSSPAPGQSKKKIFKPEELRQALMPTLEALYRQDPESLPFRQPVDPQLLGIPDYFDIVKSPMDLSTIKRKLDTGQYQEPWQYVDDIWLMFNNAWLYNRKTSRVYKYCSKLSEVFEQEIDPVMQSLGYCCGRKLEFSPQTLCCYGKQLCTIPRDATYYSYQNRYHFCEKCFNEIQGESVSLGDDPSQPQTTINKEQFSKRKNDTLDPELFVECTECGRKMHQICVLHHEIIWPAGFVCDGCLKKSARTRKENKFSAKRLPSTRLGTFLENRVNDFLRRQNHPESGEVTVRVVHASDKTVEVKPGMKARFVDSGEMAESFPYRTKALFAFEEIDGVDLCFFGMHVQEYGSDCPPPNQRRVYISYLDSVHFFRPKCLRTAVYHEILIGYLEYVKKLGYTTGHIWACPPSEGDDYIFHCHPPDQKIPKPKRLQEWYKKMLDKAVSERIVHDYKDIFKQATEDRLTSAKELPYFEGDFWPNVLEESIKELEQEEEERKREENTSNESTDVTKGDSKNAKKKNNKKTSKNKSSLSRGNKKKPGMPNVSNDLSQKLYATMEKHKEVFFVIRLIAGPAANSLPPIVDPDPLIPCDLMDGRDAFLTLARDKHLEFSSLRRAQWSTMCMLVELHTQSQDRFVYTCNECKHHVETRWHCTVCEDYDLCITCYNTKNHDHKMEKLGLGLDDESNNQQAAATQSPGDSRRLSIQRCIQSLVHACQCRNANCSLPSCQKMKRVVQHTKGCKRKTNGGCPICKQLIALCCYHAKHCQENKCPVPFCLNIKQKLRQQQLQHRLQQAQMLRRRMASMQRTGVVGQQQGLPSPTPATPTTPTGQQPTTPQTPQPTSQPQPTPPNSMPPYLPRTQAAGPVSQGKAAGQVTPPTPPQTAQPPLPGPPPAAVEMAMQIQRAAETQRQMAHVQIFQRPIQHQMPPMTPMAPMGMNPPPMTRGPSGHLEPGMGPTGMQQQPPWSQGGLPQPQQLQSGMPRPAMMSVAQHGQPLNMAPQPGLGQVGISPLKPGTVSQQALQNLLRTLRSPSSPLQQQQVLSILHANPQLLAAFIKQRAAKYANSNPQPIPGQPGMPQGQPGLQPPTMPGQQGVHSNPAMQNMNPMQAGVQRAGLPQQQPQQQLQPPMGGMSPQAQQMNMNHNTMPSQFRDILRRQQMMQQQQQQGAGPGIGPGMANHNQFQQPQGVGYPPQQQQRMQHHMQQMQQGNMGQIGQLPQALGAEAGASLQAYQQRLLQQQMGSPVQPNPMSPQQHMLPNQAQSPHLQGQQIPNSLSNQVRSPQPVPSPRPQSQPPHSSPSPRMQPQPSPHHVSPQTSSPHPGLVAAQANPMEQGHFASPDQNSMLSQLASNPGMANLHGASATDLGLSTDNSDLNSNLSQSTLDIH

target: FLAG-β-catenin* (human β-catenin with S33Y) (human) (UniProt P35222); assay: co-IP; anti-FLAG M2 affinity gel on clarified lysates of HEK293T β-catenin KO cells transfected with FLAG-β-catenin constructs; lysis buffer 50 mM Tris HCl pH 7.4, 150 mM NaCl, 1 mM EDTA, 1% Triton X-100; eluates blotted for the partners

binding, binds:
BRG1 (from UniProt P51532 1-1647)
CBP (from UniProt Q92793 1-2442)
TCF7 (from UniProt P36402 1-384)
p300 (from UniProt Q09472 1-2414)
